## Primary screen of a compound library

From ChEMBL document CHEMBL3988442, “University of Dundee, Small-Polar-MMV Screening Library” (2021).

Each number is a percent effect as filed. How 0% and 100% were set is not recorded. Most values in the screen are low, and negative values occur. This is an unselected part of the compounds tested.

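Whole-parasite assay of Trypanosoma brucei over 72 hours; the read-out is not stated. Concentration: 30 µM. Higher reads as stronger inhibition (inferred: compounds with an IC50 in retests scored well above the rest). Values scatter widely below zero; nearly all retest evidence comes from the higher of the two concentrations used. Size under these conditions: about 64,000 compounds, about 940 of them at 50% or above in at least one test.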

structure	effect
COc1ccc(N(c2ccccc2)c2ccc(C(=O)O)s2)cc1	-3.945%
CCCC1(CNCc2ncc[nH]2)CCC1	26.22%
CCCOC1CCCN(c2nc(COC)nc3c2cnn3C)C1 (configuration not stated)	-38.75%
O=C(c1nc(Cc2c[nH]c3ccccc23)no1)N1CCCCC1	-34.78%
CC(C)(C)SCC(=O)Nc1cc(-n2nnnc2C2CC2)ccc1F	-82.28%
CC(C)(C)CNC(=O)CNC(=O)C1CC1	-22.32%
CCCOCCN1CCc2[nH]c(-c3ccccc3)nc2C1	-154.6%
Cc1nc(NCCSc2cnn[nH]2)c2cccnc2n1	-9.252%
Cn1cnnc1CN1CCC2(CCCN(C3CCCC3)C2=O)C1 (configuration not stated)	-39.26%
CC(C)COC(=O)N1CCC2(CCNC2)C1.Cl (configuration not stated)	-25.89%
CN1CCN(Cc2noc(-c3cc(-c4ccccc4F)n[nH]3)n2)CC1	-5.896%
CC(=O)N1CCCN(C(=O)NCc2ccccn2)CC1	-36.23%
CC(=O)N1CC2(CCN(C(=O)c3ccc4c(c3)OCCO4)CC2)C1	-14.11%
COc1ccc(C(=O)N2C[C@@H](NC(=O)N(C)C)[C@H](C(C)C)C2)c(OC)n1	-11.49%
CC1(c2nccs2)CCN(C(=O)CCN2CCOCC2)CC1	-15.7%
OCCC1CN(c2ncnc3[nH]cnc23)CCN1Cc1cccs1 (configuration not stated)	17.25%
O=C1N(CC2CC2)C2(CCSCC2)NC12CCCC2	2.588%
COC1(CNS(=O)(=O)c2ccccc2Br)CCSC1 (configuration not stated)	14.84%
CN1CCN(Cc2cnc3n2CCN(Cc2cccnc2)CC3)CC1.O=C(O)C(F)(F)F.O=C(O)C(F)(F)F.O=C(O)C(F)(F)F	-39.08%
COc1ncccc1CNC(=O)N(Cc1ccccc1F)C1CC1	-41.76%
CCC1CN(C(=O)c2ccc(=O)[nH]n2)CCC(=O)N1Cc1ccccc1 (configuration not stated)	-35.72%
Cc1nc(C2(NCc3c(C)nn(C)c3N3CCOCC3)CCC2)no1	-40.2%
c1csc(-c2noc(CCCNC3CCc4ncnn4C3)n2)c1 (configuration not stated)	-21.1%
O=C(O)C(F)(F)F.[H][C@@]12OCCN(CCOCc3ccccc3)[C@@]1([H])CC[C@H]2OCC	-16.48%
CCC(CO)N(Cc1ccco1)Cc1c(C)nn(C)c1Cl (configuration not stated)	-13.63%
CC(Cc1cccs1)C(=O)NCc1cccc(N2CCCC2=O)c1 (configuration not stated)	19.47%
CC(C)N(Cc1cccc(Cl)c1)Cc1nnsc1Cl	0.6454%
CCn1nc(CC(C)C)cc1C(=O)N1CC(N2CCCCC2C)C1 (configuration not stated)	2.052%
CCC(O)(CNCc1ccncc1)c1ccc(Br)cc1 (configuration not stated)	-3.259%
CN1CC(=O)N(c2ccsc2)CC12CCN(C(=O)c1cccn1C)C2.O=C(O)C(F)(F)F (configuration not stated)	-33.31%
Cc1c(C(=O)N2CCOCC2)nnn1-c1ccc2ncccc2c1	20.43%
COc1ccc(Cl)cc1C(=O)NCC1CCN(C(=O)c2ccoc2)CC1	48.47%
Cc1nnc2n1CCN(C(=O)C(OC1CCCC1)c1ccccc1)C2 (configuration not stated)	-61.39%
Cc1cc(CN(C)C(=O)C2CC(c3cccc(F)c3)=NO2)no1 (configuration not stated)	4.921%
CC(CO)CNC(=O)c1cc2cccc(F)c2o1 (configuration not stated)	-29.34%
CC(C)(C)OC(=O)N1CCC(NC2CC2)CC1	-23.94%
CC(=O)C(Cc1ccccc1)NC(=O)CSc1nncn1C (configuration not stated)	-44.8%
COCC(=O)N1CCN(Cc2coc(-c3cccc(F)c3)n2)CC1	8.282%
O=C(O)[C@@H]1CN(Cc2nc3ncccn3n2)C[C@H]1c1cccc(F)c1	-5.97%
CN(CCn1cnc(-c2ccccc2)c1-c1ncc[nH]1)S(C)(=O)=O	-24.35%
CC(C)(C)c1coc([C@@H]2COCCN2Cc2ccccc2)n1	2.479%
CN(Cc1noc(C2CC2)n1)C1CCN(Cc2nnc(C3CC3)o2)C1 (configuration not stated)	-3.885%
CN(C)S(=O)(=O)N1CCN(C(=O)c2cc(-c3ccc(Br)s3)n[nH]2)CC1	24.34%
CN1CCC(CNC(=O)c2ccc(O)nc2)c2ccccc21 (configuration not stated)	-28.38%
COc1ccc(CC(=O)N(C)Cc2nnc3ccccn23)cc1	3.554%
O=C(NCCCc1ccc(O)cc1)C1(O)Cc2ccccc2C1	1.597%
CN1CCN(C(=O)CCn2ncc3ccccc32)CC(C(N)=O)C1 (configuration not stated)	-17.76%
O=C(O)C(F)(F)F.[H][C@@]12COC[C@H](C(=O)N3CCCO3)[C@]1([H])CN(C1CCCC1)C2	-26.55%
CCc1nc(C2CCCN(C(=O)c3ccccc3Cl)C2)no1 (configuration not stated)	-15.04%
Cc1ccc(C(=O)N2CCC3(CC2)CCN(Cc2ccccn2)C3=O)o1.O=C(O)C(F)(F)F	-16.24%
CC(C)Cc1nc(OCC(=O)O)c(C#N)c2c1CCC2	2.757%
COc1cc(F)ccc1-c1nc2c([nH]1)c(C1CC1)nn2C	-19.97%
Cc1cc2nc(SCC(=O)N3CCOCC3)n(CCC(C)C)c(=O)c2[nH]1	-35.93%
Cc1cc(C(=O)NCCN2CCCCC2)nn1C(C)(C)C	-47.27%
CN(C)S(=O)(=O)NCC1OCCc2cn(CC3CCOCC3)nc21 (configuration not stated)	-6.087%
O=C(c1ccoc1)N1CCOCC2(CCN(Cc3cccs3)C2)C1 (configuration not stated)	-7.287%
CN(CC(=O)N1CCCC1)C(=O)c1ccccc1F	-10.25%
COCC(=O)NCCc1ccc(I)s1	-2.635%
COCCCN1CCN(CC2CCCO2)CC1 (configuration not stated)	-45.71%
CC(C)=CCCC1(C)C=Cc2c(cc(C)n(CCC(=O)O)c2=O)O1 (configuration not stated)	-19.25%
Cn1ncc2c(NCC3CCS(=O)(=O)C3)nc(-c3ccncc3)nc21 (configuration not stated)	-50.01%
COc1ccccc1CCNC(=O)N1CCC(n2cncn2)CC1	6.923%
Cc1cnn(C2CCCN(C(=O)c3ccn(C)c(=O)c3)C2)c1 (configuration not stated)	-0.3293%
COc1ccccc1C(=O)Nc1cc(CC(C)C)nn1C	-11.27%
[H][C@]12CCN(S(=O)(=O)Cc3ccccc3)[C@@]1([H])CC[C@@H](COC)O2	-5.19%
Cc1ncccc1C(=O)NC1(c2cccc(F)c2)CCOCC1	4.709%
CC(C)c1noc(CN(C)C(=O)c2ccccc2-c2nc[nH]n2)n1	-27.77%
CC(=O)N1CCN(Cc2ccncc2)CC2(CC(=O)N(C)C2)C1.O=C(O)C(F)(F)F.O=C(O)C(F)(F)F (configuration not stated)	-22.21%
COc1ccccc1C1CCN(C(=O)CN2C(=O)OC(C)(C)C2=O)CC1	2.565%
FC(F)(F)c1cccc(OC2CCN(Cc3ncc[nH]3)CC2)c1	-13.87%
O=c1[nH]c2c(c(=O)n1C1CCCCC1)CCC2Nc1ccc(Cl)cc1 (configuration not stated)	-4.099%
CC(C)[C@@H]1CN(S(=O)(=O)Cc2ccccc2)C[C@H]1C(=O)O	0.4078%
COCC1CCN(c2ccnc3ccsc23)C1 (configuration not stated)	-16.36%
CN(CCCc1nccn1C)c1nccc(-c2cc(C(=O)O)ccn2)n1	0.6341%
CC(C)(C)C(=O)NCc1cnn2ccccc12	-18.39%
O=C(O)CN(Cc1ccsc1)CC1CCCO1 (configuration not stated)	-43.7%
CCc1cc(CN(C)C(=O)C2CC(=O)N(c3cccc(O)c3)C2)on1 (configuration not stated)	-15.7%
COC(=O)CCCC(=O)N(C)CC1Cc2ccccc2CN1C (configuration not stated)	5.454%
O=C(CNC(=O)N1CCN(c2cccc(Cl)c2)CC1)Nc1ccccn1	-4.884%
CC(O)CN1CC2(CCC1=O)CCN(Cc1cc(F)ccc1Cl)CC2 (configuration not stated)	17.58%
Cc1cc(NCc2csc(-c3ccsc3)n2)no1	7.458%
COc1ccc2c(c1)C(=O)NC1(CC2)CCN(Cc2cccnc2)C1 (configuration not stated)	1.622%
O=C(Cc1cnc(-c2c(Cl)cccc2Cl)s1)N1CCOCC1	-42.66%
O=S(=O)(C1CC1)N1CCC2(CC1)COC(COc1cccnc1)C2 (configuration not stated)	-0.8749%
[H][C@@]12CCN(C(C)=O)CC[C@]1(C(=O)Nc1cccnc1)CCN2C	-95.56%
Cc1noc2ncc(C(=O)N3CCCC3c3cnn(C)c3)cc12 (configuration not stated)	-34.67%
COc1c(CNC2CCCOc3ccccc32)c(C(C)C)nn1C (configuration not stated)	-21.5%
CC(C)C(C(=O)N1CCCN(c2nccs2)CC1)n1cncn1 (configuration not stated)	-10.48%
CCc1cnc(C)nc1NC(CC)c1ncnn1CC (configuration not stated)	-0.7235%
CNC[C@H]1CC[C@H](c2cc(CN(C)C(=O)c3cnccn3)n(C)n2)CC1.Cl	0.1567%
Fc1cccc(OC2CCN(Cc3ncc[nH]3)CC2)c1	15.17%
Cc1ccc(CC(=O)NCC(O)c2cccc(C(F)(F)F)c2)cn1 (configuration not stated)	-37.57%

9 of the entries, repeated:

structure,effect
Cc1ccc(CC(=O)NCC(O)c2cccc(C(F)(F)F)c2)cn1 (configuration not stated),-37.57%
COc1ncccc1CNC(=O)N(Cc1ccccc1F)C1CC1,-41.76%
CC(C)(C)c1coc([C@@H]2COCCN2Cc2ccccc2)n1,2.479%
CC(C)C(C(=O)N1CCCN(c2nccs2)CC1)n1cncn1 (configuration not stated),-10.48%
OCCC1CN(c2ncnc3[nH]cnc23)CCN1Cc1cccs1 (configuration not stated),17.25%
Cn1cnnc1CN1CCC2(CCCN(C3CCCC3)C2=O)C1 (configuration not stated),-39.26%
CN(CCCc1nccn1C)c1nccc(-c2cc(C(=O)O)ccn2)n1,0.6341%
Cc1cnn(C2CCCN(C(=O)c3ccn(C)c(=O)c3)C2)c1 (configuration not stated),-0.3293%
CN(C)S(=O)(=O)N1CCN(C(=O)c2cc(-c3ccc(Br)s3)n[nH]2)CC1,24.34%